Source: publication PMC5898902

Amino acid sequences for entries named in this document (tags omitted). Residues count along the entry.
UniProt P25705, residues 44-553: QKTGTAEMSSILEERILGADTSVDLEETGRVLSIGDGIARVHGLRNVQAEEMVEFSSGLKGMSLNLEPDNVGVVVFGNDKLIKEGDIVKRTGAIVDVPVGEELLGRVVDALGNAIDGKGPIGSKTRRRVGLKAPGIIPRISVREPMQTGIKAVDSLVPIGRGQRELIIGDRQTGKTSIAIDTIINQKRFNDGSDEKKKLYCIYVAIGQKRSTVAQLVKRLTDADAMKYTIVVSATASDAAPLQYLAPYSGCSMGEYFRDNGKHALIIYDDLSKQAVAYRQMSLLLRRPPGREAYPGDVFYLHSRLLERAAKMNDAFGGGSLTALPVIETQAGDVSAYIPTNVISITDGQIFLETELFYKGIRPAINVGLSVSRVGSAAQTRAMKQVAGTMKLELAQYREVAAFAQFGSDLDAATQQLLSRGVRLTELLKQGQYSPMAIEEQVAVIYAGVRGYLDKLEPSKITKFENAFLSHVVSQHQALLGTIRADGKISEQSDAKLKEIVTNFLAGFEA

Target: GRA8 T220A mutant (GST fusion, expressed in 293T cells) (Toxoplasma gondii) (UniProt S8F761)
Test: pull-down; 293T cells 48 h after co-transfection of mammalian GST fusions (GST-GRA8 constructs with V5-ATP5A1; GST-ATP5A1 constructs with Flag-GRA8); GST pull down, IB with αV5 or αFlag

Substance: V5-ATP5A1 (full length), expressed in 293T cells (from UniProt P25705 44-553)
- binding: binds

Results are given in words; binding and its absence hold for the method and conditions named. In cells and extracts the contact can be indirect. Binding can be weak; no strength is given.
